The other results are listed elsewhere or left out.
test system: T1, CTL2-GFP (C. trachomatis L2/434/Bu, GFP-expressing); set-up: species or system HeLa; Intracellular C. trachomatis growth in HeLa cells, bulk GFP fluorescence relative to DMSO; details: bulk GFP, single well; 28.5 h, 10 µM; inhibitor
T1 construct: L2/434/Bu, GFP-expressing

| Structure (SMILES) | % of control remaining [%] |
| --- | --- |
| CCCCCOc1nccnc1N1CCNCC1 [CBK001901G] | 105.243 |
| O=S1(=O)N=CNc2ccccc21 [CBK028171] | 100.192 |
| C=CCn1c(SCCC(=O)O)nc2c1c(=O)n(C)c(=O)n2C [CBK269573] | 153.327 |
| O=C(Cn1c2ccccc2n2ncnc12)c1ccc(-c2ccccc2)cc1 [CBK263097] | 82.5912 |
| O=C(Nc1ccc(F)c(Cl)c1)c1cccnc1Sc1cccs1 [CBK057512] | 100.284 |
| O=c1c2c3nc4ccccc4nc3n(CCc3ccccc3)c2ncn1C1CCCC1 [CBK269464] | 93.0415 |
| CCS(=O)(=O)NC1CCN(c2nc(C(F)(F)F)nc3[nH]cnc23)CC1 [CBK304588] | 128.813 |
| CCC(C)c1ccc(NC(=O)CSc2nnnn2C)cc1 (centres unmarked) [CBK058085] | 107.823 |
| CC(C)(C)OC(=O)NCCc1ccc(Nc2cc(-c3ccc4c(c3)OCO4)ncn2)cc1 [CBK090957] | 109.876 |
| FC(F)(F)c1ccc(SCc2cccs2)nc1 [CBK103711] | 95.151 |
| Cc1cc(C)c2cc(CN(CCO)Cc3nnnn3CC3CCCO3)c(=O)[nH]c2c1 (centres unmarked) [CBK108944] | 128.158 |
| CCN(CC)CCN(CC(=O)Nc1c(C)cccc1Cl)Cc1ccccc1 [CBK023143] | 135.227 |
| c1ccc(COCCCN2CCC3(CC2)OCCc2c3[nH]c3ccccc23)cc1 [CBK040208] | 100 |
| O=C(Cc1cccc(F)c1)N1CCC(c2cc3ncccc3[nH]2)CC1 [CBK283374] | 101.894 |
| O=C(c1ccccc1O)N1CCN(Cc2cc(=O)n3ccsc3n2)CC1 [CBK306096] | 138.019 |
| Nc1nc(Cl)c2ncn([C@H]3C[C@@H](O)[C@@H](CO)O3)c2n1 [CBK201193] | 140.714 |
| COc1ccc(Cc2n[nH]c(=S)n2-c2cccnc2)cc1 [CBK288373] | 134.448 |
| O=c1c2cccnc2ncn1CC(O)COc1ccc(-c2ccccc2)cc1 (centres unmarked) [CBK296690] | 127.996 |
| O=C(O)C1C(C(=O)O)C1C(=O)O (centres unmarked) [CBK230432] | 108.954 |
| Cc1cccn2c(=O)cc(CN3CCC(CNc4ccccn4)C3)nc12 (centres unmarked) [CBK306123] | 135.818 |
| CC(=O)N1CCC2(CC1)NC(=O)N(c1ccc(C(=O)O)cc1)N2 [CBK286758] | 126.539 |
| O=C(Cn1c(-c2cncs2)nc2ccccc21)NCc1ccccc1 [CBK264705] | 100 |
| O=C(Nc1ccc2nc3n(c(=O)c2c1)CCCC3)C1CCCCC1 [CBK304383] | 111.139 |
| Cc1ccc(S(=O)(=O)NCCCO)cc1C(=O)O [CBK266610] | 156.746 |
| O=C(c1cc(C2CCCN(Cc3ccccc3)C2)no1)N1CCCC1 (centres unmarked) [CBK283395] | 108.117 |
| Cc1ccc(Cc2c(C)nc(N3CCN(Cc4ccccc4)CC3)[nH]c2=O)cc1 [CBK270170] | 71.7097 |
| O=S(=O)(Nc1nnn[nH]1)c1cccc2nonc12 [CBK062380] | 192.828 |

21 neighbouring records already listed:

| Structure (SMILES) | % of control remaining [%] |
| --- | --- |
| O=C(Cn1c2ccccc2n2ncnc12)c1ccc(-c2ccccc2)cc1 [CBK263097] | 82.5912 |
| O=C(Nc1ccc(F)c(Cl)c1)c1cccnc1Sc1cccs1 [CBK057512] | 100.284 |
| O=c1c2c3nc4ccccc4nc3n(CCc3ccccc3)c2ncn1C1CCCC1 [CBK269464] | 93.0415 |
| CCS(=O)(=O)NC1CCN(c2nc(C(F)(F)F)nc3[nH]cnc23)CC1 [CBK304588] | 128.813 |
| CCC(C)c1ccc(NC(=O)CSc2nnnn2C)cc1 (centres unmarked) [CBK058085] | 107.823 |
| CC(C)(C)OC(=O)NCCc1ccc(Nc2cc(-c3ccc4c(c3)OCO4)ncn2)cc1 [CBK090957] | 109.876 |
| FC(F)(F)c1ccc(SCc2cccs2)nc1 [CBK103711] | 95.151 |
| Cc1cc(C)c2cc(CN(CCO)Cc3nnnn3CC3CCCO3)c(=O)[nH]c2c1 (centres unmarked) [CBK108944] | 128.158 |
| CCN(CC)CCN(CC(=O)Nc1c(C)cccc1Cl)Cc1ccccc1 [CBK023143] | 135.227 |
| c1ccc(COCCCN2CCC3(CC2)OCCc2c3[nH]c3ccccc23)cc1 [CBK040208] | 100 |
| O=C(Cc1cccc(F)c1)N1CCC(c2cc3ncccc3[nH]2)CC1 [CBK283374] | 101.894 |
| O=C(c1ccccc1O)N1CCN(Cc2cc(=O)n3ccsc3n2)CC1 [CBK306096] | 138.019 |
| Nc1nc(Cl)c2ncn([C@H]3C[C@@H](O)[C@@H](CO)O3)c2n1 [CBK201193] | 140.714 |
| COc1ccc(Cc2n[nH]c(=S)n2-c2cccnc2)cc1 [CBK288373] | 134.448 |
| O=c1c2cccnc2ncn1CC(O)COc1ccc(-c2ccccc2)cc1 (centres unmarked) [CBK296690] | 127.996 |
| O=C(O)C1C(C(=O)O)C1C(=O)O (centres unmarked) [CBK230432] | 108.954 |
| Cc1cccn2c(=O)cc(CN3CCC(CNc4ccccn4)C3)nc12 (centres unmarked) [CBK306123] | 135.818 |
| CC(=O)N1CCC2(CC1)NC(=O)N(c1ccc(C(=O)O)cc1)N2 [CBK286758] | 126.539 |
| O=C(Cn1c(-c2cncs2)nc2ccccc21)NCc1ccccc1 [CBK264705] | 100 |
| O=C(Nc1ccc2nc3n(c(=O)c2c1)CCCC3)C1CCCCC1 [CBK304383] | 111.139 |
| Cc1ccc(S(=O)(=O)NCCCO)cc1C(=O)O [CBK266610] | 156.746 |

Next compounds

| Structure (SMILES) | % of control remaining [%] |
| --- | --- |
| CC(C)n1c(=O)n(CC(=O)NC2CCCCC2)c2cccnc21 [CBK283696] | 102.283 |
| C=CCOc1ccc2ccccc2c1CNc1nn[nH]n1 [CBK267619] | 140.445 |
| O=C(c1cc(F)cc(F)c1)N1CCC(O)(c2cccnc2F)CC1 [CBK284361] | 122.006 |
| CC(=O)N1CCC2(C/C=C/C[C@H]3CN(CCO)CC[C@H]3NC(=O)CNC2=O)CC1 [CBK292139] | 115.013 |
| CC(Sc1ccc(Cl)cc1)C(=O)Nc1ccc(CSc2ccccc2)cc1 (centres unmarked) [CBK264670] | 122.484 |
| Cc1ccc(NS(=O)(=O)c2cc(C(=O)N3CCN(C)CC3)ccc2C)cc1 [CBK268577] | 124.94 |
| COc1ccc(CC(=O)NNC(=O)Nc2ccc(Cl)c(Cl)c2)cc1 [CBK262652] | 104.775 |
| O=C(NCCSCc1ccco1)Nc1ccc(Cl)cc1 [CBK267869] | 137.682 |
| CC1(NC(=O)CC(c2ccncc2)c2c[nH]c3ccccc23)CCC1 (centres unmarked) [CBK281610] | 116.099 |
| COc1ccc(OCc2nn(-c3nc4ccccc4s3)c(N)c2-c2ccccc2)cc1 [CBK266539] | 128.968 |
| CCCOc1ccc(C(C)=O)cc1CC(C(N)=O)C(N)=O [CBK263309] | 110.806 |
| Cc1ccc(S(N)(=O)=O)cc1-c1nnc2c3ccccc3c(C)nn12 [CBK266680] | 108.193 |
| COc1ccc(N2C(=O)CC(n3c(CCCCO)nc4ccccc43)C2=O)cc1 (centres unmarked) [CBK268895] | 99.9779 |
| Cc1csc([C@H]2Cc3ccsc3[C@@H](C3CCOC3)N2)n1 (some centres unmarked) [CBK285089] | 139.549 |
| Cn1nnnc1NC(=O)c1ccccc1F [CBK058776] | 91.6655 |
| CCn1ncnc1CN(C)Cc1ccc2c(c1)CN(C)C2 [CBK306530] | 133.18 |
| CCc1ccc(C(O)CNC2CCN(CCOC)CC2)cc1 (centres unmarked) [CBK304259] | 116.05 |
| CCCCNC(=O)c1c(N)n(-c2ccc(C(=O)O)cc2)c2nc3ccccc3nc12 [CBK300500] | 164.977 |
| CC(=O)c1ccc(OC(C)C)c(CSc2nc(O)cc(O)n2)c1 [CBK263446] | 117.941 |
| COc1ccc(S(=O)(=O)N(CC(=O)O)C2CCCCC2)cc1Cl [CBK267997] | 121.244 |
| Cc1nc(-c2n[nH]cc2-c2ccccc2F)sc1CCN [CBK281578] | 124.796 |
| Oc1ccc(/N=C/c2ccc(/C=N/c3ccc(O)cc3)cc2)cc1 [CBK261203] | 102.432 |
| N#C/C(=C\c1ccc(OCC(=O)O)cc1)C(N)=S [CBK268917] | 162.129 |
| CC(C)(CN1CCCCC1)NC(=O)CCOc1cccc(F)c1 [CBK282060] | 98.6744 |
| CN(CCN1CCOCC1)c1nc2c(c(=O)[nH]1)Cc1ccccc1OC2 [CBK306783] | 124.379 |
| COc1ccc(-c2noc(CSc3nc4sc(C)c(C)c4c(=O)n3-c3ccccc3)n2)cc1 [CBK268264] | 133.241 |
| CC(=O)Nc1cccc(-n2cc(-c3cccc(C(F)(F)F)c3)nn2)c1 [CBK112938] | 101.384 |

| Structure (SMILES) | % of control remaining [%] |
| --- | --- |
| O=C(c1ccco1)N1CCC(n2c(=O)oc3ccccc32)CC1 [CBK284350] | 103.648 |
| Cc1cccc(-c2ccc3c(c2)C(=O)N2CC[C@H](NC(=O)NC(C)C)C[C@H]2C(=O)N3)c1C [CBK289567] | 119.938 |
| CN(/N=C\c1ccc([N+](=O)[O-])cc1)c1nc(-c2ccccc2)cc(-c2ccccc2)n1 [CBK261517] | 105.54 |
| O=C(O)CCCc1ccc2sc3ccccc3c2c1 [CBK010971] | 135.965 |
| CN1CCN(CCCNC(=O)C2(c3ccccc3)CCCC2)CC1 [CBK149521] | 124.827 |
| N#Cc1c(Nc2cccc(C(F)(F)F)c2)sc(C(=O)c2ccc3c(c2)OCO3)c1N [CBK074399] | 10.9748 |
| Nc1ncc(-c2ccc(F)c(Cl)c2)nc1NCCCO [CBK063555] | 116.556 |
| CC(C)S(=O)(=O)N1CCC(C(=O)NC(c2ccccc2)c2ccc3ccccc3n2)CC1 (centres unmarked) [CBK059676] | 78.2403 |
| O=C(O)CCc1ccc(-c2cn3ccnc3c(NCc3ccncc3)n2)cc1 [CBK038022] | 174.686 |
| Cn1c(=O)c2c(nc(N3CCN(c4cccc(Cl)c4)CC3)n2CC(=O)O)n(C)c1=O [CBK286803] | 135.092 |
| CN(C)C(=O)c1cccc(-c2cnc(N3CCOCC3)c3nccn23)c1 [CBK091261] | 159.011 |
| O=C(NCN1CCN(c2ccccc2F)CC1)c1cccnc1 [CBK265530] | 125.084 |
| CCc1nc2cc(NC(=O)c3csc(C(C)=O)c3)ccc2n1C [CBK282522] | 84.733 |
| Cc1oc2c(c1C(=O)NCCn1ccnc1C)CCCC2 [CBK281898] | 124.42 |
| NC[C@H]1CC[C@H](C(=O)NCCN2CCc3ccccc32)CC1 [CBK282723] | 129.999 |
| O=[N+]([O-])c1ccccc1/C=C/CN1CCN(CCO)CC1 [CBK261863] | 122.522 |
| Cc1sc(-c2ccc(C(F)(F)F)cc2)nc1COc1cncc(N2CCNCC2)n1 [CBK172383G] | 104.048 |
| CC1CCN(c2ccc(S(=O)(=O)Nc3cc(C(=O)O)cc(C(=O)O)c3)cc2[N+](=O)[O-])CC1 [CBK263886] | 106.544 |
| O=C(O)c1cc(C(=O)O)c(-c2ccccc2)c(C(=O)O)c1 [CBK261101] | 100 |
| COc1ccc(C(=O)CSc2nnc(-c3ccc4c(c3)OCO4)n2-c2ccccc2)cc1 [CBK263592] | 100 |
| Cc1noc(C)c1S(=O)(=O)Nc1c(C(=O)N2CCN(C)CC2)[nH]c2ccccc12 [CBK050057] | 107.823 |
| CC(O)c1nc2ccccc2n1C (centres unmarked) [CBK115560] | 170.731 |
| COc1ccc(NS(=O)(=O)c2ccc(Cl)c(C(=O)Nc3ccccc3C(=O)O)c2)cc1 [CBK263209] | 64.7488 |
| CCN(CC)C(=O)c1sc2ncccc2c1NS(=O)(=O)c1ccc(C)c([N+](=O)[O-])c1 [CBK050618] | 101.606 |
| CC(C)NC(=O)C1CC2CCC1CC21NC(=O)c2ccccc2O1 (centres unmarked) [CBK284353] | 125.645 |
| COc1ccccc1C(CNC(=O)Nc1cc(C)on1)N1CCCC1 (centres unmarked) [CBK304586] | 117.514 |
